# Measured values from the supplement of paper PMC4604168 (melanoma cell lines).
# This is one part of the list. Single values are uncertain, as repeats are few or missing.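 Cells were imaged in 1,536-well plates, and nuclei stained with an antibody against cleaved PARP were counted against all DNA-stained nuclei to give the apoptosis fraction. Screening doses were chosen to leave most cells alive, and resting and induced cleaved-PARP levels differ strongly between cell lines.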
# Assays:
# Test in all cases: cleaved PARP positive nuclei fraction relative to DMSO control; melanoma cells; higher = more apoptosis
# Conditions in all cases: library dose: low library concentration; 72 h
# [1] = tested on: 501Mel
# [2] = tested on: A101D
# [3] = tested on: A2058
# [4] = tested on: A375
# [5] = tested on: C32
# [6] = tested on: CBRC008 (line from a melanoma biopsy)
# [7] = tested on: CBRC013 (line from a melanoma biopsy)
# [8] = tested on: CBRC014 (line from a melanoma biopsy)
# [9] = tested on: CBRC016 (line from a melanoma biopsy)
# [10] = tested on: CBRC017 (line from a melanoma biopsy)
# [11] = tested on: COLO792
# [12] = tested on: COLO800
# [13] = tested on: COLO829
# [14] = tested on: G361
# [15] = tested on: IPC-298
# [16] = tested on: IST-MEL1
# [17] = tested on: LB2518-MEL
# [18] = tested on: LOXIMVI
# [19] = tested on: MEL-HO
SMILES,cleaved PARP positive nuclei fraction [1] [%],cleaved PARP positive nuclei fraction [2] [%],cleaved PARP positive nuclei fraction [3] [%],cleaved PARP positive nuclei fraction [4] [%],cleaved PARP positive nuclei fraction [5] [%],cleaved PARP positive nuclei fraction [6] [%],cleaved PARP positive nuclei fraction [7] [%],cleaved PARP positive nuclei fraction [8] [%],cleaved PARP positive nuclei fraction [9] [%],cleaved PARP positive nuclei fraction [10] [%],cleaved PARP positive nuclei fraction [11] [%],cleaved PARP positive nuclei fraction [12] [%],cleaved PARP positive nuclei fraction [13] [%],cleaved PARP positive nuclei fraction [14] [%],cleaved PARP positive nuclei fraction [15] [%],cleaved PARP positive nuclei fraction [16] [%],cleaved PARP positive nuclei fraction [17] [%],cleaved PARP positive nuclei fraction [18] [%],cleaved PARP positive nuclei fraction [19] [%]
"N#CC[C@H](C1CCCC1)n1cc(-c2ncnc3[nH]ccc23)cn1 [ruxolitinib] + CO[C@@H]1[C@H](N(C)C(=O)c2ccccc2)C[C@H]2O[C@]1(C)n1c3ccccc3c3c4c(c5c6ccccc6n2c5c31)C(=O)NC4 [Midostaurin] (first compound 1 µM, partner dose 0.08 µM)",32.3,85.9,94.4,209,70.1,346,162,91.8,60.3,97.3,203,57.5,106,157,89.3,279,86.6,59,36.2
"O=C(/C=C/c1cccnc1)NCCCCC1CCN(C(=O)c2ccccc2)CC1 + C[C@@H]1CCN(C(=O)CC#N)C[C@@H]1N(C)c1ncnc2[nH]ccc12 [CP690550] (first compound 0.01 µM, partner dose 1 µM)",98.6,154,158,43.9,64,2990,171,110,238,532,337,202,138,4130,662,50.7,50.8,27.8,146
"Cc1ccc(Nc2nccc(N(C)c3ccc4c(C)n(C)nc4c3)n2)cc1S(N)(=O)=O [Pazopanib] + CN(C)S(=O)(=O)c1ccc2c(c1)/C(=C/c1cc3c([nH]1)CCCC3)C(=O)N2 [SU6656] (first compound 0.4 µM, partner dose 0.4 µM)",120,51.7,55.8,46.5,95.4,411,125,119,171,178,55.4,77.4,53.5,122,118,201,70.7,186,147
"Cc1ccc(Nc2nccc(N(C)c3ccc4c(C)n(C)nc4c3)n2)cc1S(N)(=O)=O [Pazopanib] + CN(NC(=O)CC(=O)NN(C)C(=S)c1ccccc1)C(=S)c1ccccc1 [STA4783] (first compound 0.4 µM, partner dose 0.006 µM)",189,51.4,301,1900,63.2,1040,126,520,316,188,88.7,91.6,149,256,183,93.6,82.8,167,80.7
"CC[C@]1(O)C[C@H]2CN(CCc3c([nH]c4ccccc34)[C@@](C(=O)OC)(c3cc4c(cc3OC)N(C=O)[C@H]3[C@@](O)(C(=O)OC)[C@H](OC(C)=O)[C@]5(CC)C=CCN6CC[C@]43[C@@H]65)C2)C1 [vincristine] + Cc1ccc(NC(=O)c2cccc(N(C)C)c2)cc1NC(=O)c1ccc(O)cc1 [ZM336372] (first compound 0.0001 µM, partner dose 2 µM)",104,74.3,973,376,285,208,123,116,50.6,114,60.8,251,189,110,108,294,229,149,79.3
"O=C(Nc1cc(C(F)(F)F)cc(C(F)(F)F)c1)c1cc(Cl)ccc1O + O=C(O)c1ccc(-c2c[nH]c3ncc(-c4ccccc4)cc23)cc1C1CCCC1 [GSK650394] (first compound 0.016 µM, partner dose 0.16 µM)",89.3,83.4,126,97.9,130,168,170,97.1,132,128,103,114,86.2,36,96,35.5,93.7,41.3,193
"Cc1cc(Nc2cc(N3CCN(C)CC3)nc(Sc3ccc(NC(=O)C4CC4)cc3)n2)n[nH]1 [Tozasertib] + Cn1cncc1[C@@](N)(c1ccc(Cl)cc1)c1ccc2c(c1)c(-c1cccc(Cl)c1)cc(=O)n2C [tipifarnib] (first compound 0.006 µM, partner dose 0.01 µM)",73.2,90.3,66.4,37.9,58.6,87.4,101,81.2,46.5,89.6,60.5,43.8,79.3,71,43,49.4,105,89,130
"CC[C@]1(O)C[C@H]2CN(CCc3c([nH]c4ccccc34)[C@@](C(=O)OC)(c3cc4c(cc3OC)N(C=O)[C@H]3[C@@](O)(C(=O)OC)[C@H](OC(C)=O)[C@]5(CC)C=CCN6CC[C@]43[C@@H]65)C2)C1 [vincristine] + CC1(C)NC(=O)N(c2ccc([N+](=O)[O-])c(C(F)(F)F)c2)C1=O [nilutamide] (first compound 0.0001 µM, partner dose 1 µM)",99.8,108,684,114,608,144,108,109,224,146,101,39,171,94.3,45.1,100,22.2,47.4,134
